# Where a name gives a salt, the structure may show the parent alone. ± gives the standard deviation of the averaged measurements. The list shows a part of the results. Plates or batches differ in their baseline, so values are only roughly comparable.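 Culture-activated primary human stellate myofibroblasts, where regained lipid droplets signal inactivation. Value: share of Hoechst-counted cells above a per-plate Bodipy cutoff, in duplicate wells, with DMSO negative and nortriptyline positive controls on each plate. Hits: a control-normalized score above the plate's top-tenth-percentile nortriptyline wells, or one of a plate's three best wells. Final well concentrations are not given.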
# System: primary human hepatic stellate cells (donor 1)
# Assay: percent Bodipy-positive cells; higher = more lipid droplet accumulation
# Settings: 48 h
# [1] = library stock concentration: 3.33 mM
# [2] = library stock concentration: 10 mM
# [3] = library stock concentration: 80 uM
# [4] = library stock concentration: 400 uM
# [5] = library stock concentration: 1 mM
# [6] = library stock concentration: 2 mM
compound,measurement,setting,value
CN(C)Cc1c(C(=O)NCCOc2ccc(C(=O)NO)cc2)oc2ccccc12,percent Bodipy-positive cells,[1],74.3 ± 1.9%
same,percent Bodipy-positive cells,[2],77.1 ± 2.9%
Nc1nccc(-c2ccc3noc(-c4ccc(Cl)cc4)c3c2)n1 [PIM 1 Inhibitor 2],percent Bodipy-positive cells,[2],13.3 ± 3.2%
COc1cc2ncnc(Nc3ccc(F)c(Cl)c3)c2cc1NC(=O)/C=C/CN1CCCCC1,percent Bodipy-positive cells,[3],12.5 ± 1.9%
same,percent Bodipy-positive cells,[4],31.6 ± 6.2%
same,percent Bodipy-positive cells,[2],95 ± 7.1%
Cc1cc(CN2CCN(c3c(Br)cnc4[nH]c(-c5ccc(N6CCN(C)CC6)cc5)nc34)CC2)no1,percent Bodipy-positive cells,[1],97.7 ± 2.4%
O=C(CCCCC(=O)Nc1c(I)cc(I)c(C(=O)O)c1I)Nc1c(I)cc(I)c(C(=O)O)c1I [Iodipamide],percent Bodipy-positive cells,,12.6 ± 1.2%
same,percent Bodipy-positive cells,[2],36.4 ± 19%
COc1ccc(/C=C/c2cc(Cl)cc(Cl)c2)cc1,percent Bodipy-positive cells,[5],8.36 ± 2.5%
CO[C@@H]1[C@H](O)[C@@H](CO)O[C@H]1n1cnc2c(NC3CCCCC3)ncnc21,percent Bodipy-positive cells,[2],10.4 ± 3.7%
Nc1c(S(=O)(=O)O)cc(Nc2ccc(Nc3nc(Cl)nc(Nc4cccc(S(=O)(=O)O)c4)n3)c(S(=O)(=O)O)c2)c2c1C(=O)c1ccccc1C2=O [Reactive Blue 2],percent Bodipy-positive cells,[2],2.24 ± 0.31%
CC(C)C1C2CCC(C2)C1N (configuration not stated),percent Bodipy-positive cells,[2],26.5 ± 1.4%
CSc1nc(N)c2ncn([C@@H]3O[C@H](COP(=O)(O)OP(=O)(O)O)[C@H](O)C3O)c2n1 (some centres not stated),percent Bodipy-positive cells,[2],50.3 ± 7.2%
Cc1ccc(C(=O)C(C)CN2CCCCC2)cc1 (configuration not stated) [Tolperisone HCl],percent Bodipy-positive cells,[1],8.117 ± 0.04%
same,percent Bodipy-positive cells,[2],31.3 ± 8.4%
Cc1ccc(C(=O)C(C)CN2CCCCC2)cc1 (configuration not stated) [Tolperisone hydrochloride],percent Bodipy-positive cells,[2],15.7 ± 1.9%
Cc1c(C)c2c(c(C)c1O)CCC(C)(CCCC(C)C(=O)O)O2 (configuration not stated),percent Bodipy-positive cells,[5],8.96 ± 4.2%
CNCC[C@@H](Oc1ccccc1C)c1ccccc1 [Atomoxetine hydrochloride],percent Bodipy-positive cells,library stock concentration: 7.2 mM,30.9 ± 6.3%
CNCC[C@@H](Oc1ccccc1C)c1ccccc1 [Atomoxetine HCl],percent Bodipy-positive cells,[1],50.2 ± 2.5%
same,percent Bodipy-positive cells,[2],53.3 ± 12%
CNCC[C@@H](Oc1ccccc1C)c1ccccc1 [Tomoxetine],percent Bodipy-positive cells,[2],61.8 ± 0.67%
CNCC[C@@H](Oc1ccccc1C)c1ccccc1 [Tomoxetine hydrochloride],percent Bodipy-positive cells,[2],36.3 ± 2.8%
"c1ccc(CN2CCC3(CCCc4ccccc43)CC2)cc1 [L-687,384 hydrochloride]",percent Bodipy-positive cells,[2],91.2 ± 5.3%
CCC(CC)(NC(=O)C(C)C)C(=O)N[C@@H](CCCN=C(N)N)C(=O)NC1(C(=O)NC(c2ccc(F)cc2)c2ccc(F)cc2)CCCC1,percent Bodipy-positive cells,[1],25.1 ± 0.91%
same,percent Bodipy-positive cells,[2],30.9 ± 6.6%
CCN(CC)CCCN(c1ccccc1)C1Cc2ccccc2C1 [Aprindine hydrochloride],percent Bodipy-positive cells,[2],57.1 ± 8.8%
CC(C)=CCC/C(C)=C\CO [Nerol],percent Bodipy-positive cells,[2],21.94 ± 0.03%
COCCCOc1ccnc(C[S+]([O-])c2nc3ccccc3[nH]2)c1C (configuration not stated),percent Bodipy-positive cells,[2],5.79 ± 1.9%
COCCCOc1ccnc(C[S+]([O-])c2nc3ccccc3[nH]2)c1C (configuration not stated) [Rabeprazole sodium],percent Bodipy-positive cells,library stock concentration: 5.2 mM,15.8 ± 3%
Cc1cc(Nc2ncc(Cl)c(Nc3ccccc3S(=O)(=O)C(C)C)n2)c(OC(C)C)cc1C1CCNCC1,percent Bodipy-positive cells,[1],98.9 ± 1.6%
same,percent Bodipy-positive cells,[2],100%
Cc1cc(Nc2ncc(Cl)c(Nc3ccccc3S(=O)(=O)C(C)C)n2)c(OC(C)C)cc1C1CCNCC1 [Ceritinib],percent Bodipy-positive cells,[3],29.67 ± 0.18%
same,percent Bodipy-positive cells,[4],32.3 ± 7.6%
same,percent Bodipy-positive cells,[6],60.5 ± 15%
same,percent Bodipy-positive cells,[2],78.8 ± 12%
O=C(O)Cc1cc(I)c(Oc2ccc(O)c(I)c2)c(I)c1 [Tiratricol],percent Bodipy-positive cells,[1],14.1 ± 2%
same,percent Bodipy-positive cells,[2],29.6 ± 5%
O=C(O)Cc1cc(I)c(Oc2ccc(O)c(I)c2)c(I)c1,percent Bodipy-positive cells,[2],33.8 ± 5.5%
"O=C(O)Cc1cc(I)c(Oc2ccc(O)c(I)c2)c(I)c1 [Tiratricol, 3,3',5-triiodothyroacetic acid]",percent Bodipy-positive cells,,35.3 ± 5.3%
C[C@@H](C(=O)O)c1ccc(-c2ccccc2)c(F)c1 [(R)-Flurbiprofen],percent Bodipy-positive cells,[5],7.14 ± 0.14%
CC(Cc1ccc(O)c(O)c1)C(C)Cc1ccc(O)c(O)c1 (configuration not stated) [Nordihydroguaiaretic Acid],percent Bodipy-positive cells,[5],4.32 ± 1.6%
C(=C(\CCNC1)/C1)(/c2c(cccn2)CC3)\c(ccc(Cl)c4)c34 [Desloratadine],percent Bodipy-positive cells,library stock concentration: 6.4 mM,72.5 ± 3.4%
C[C@@H](Oc1cc(-c2cnn(C3CCNCC3)c2)cnc1N)c1c(Cl)ccc(F)c1Cl,percent Bodipy-positive cells,[3],14.4 ± 4.6%
same,percent Bodipy-positive cells,[4],37.8 ± 13%
same,percent Bodipy-positive cells,[6],58.3 ± 14%
same,percent Bodipy-positive cells,[2],89.6 ± 4.4%
N=C(N=C(N)N)N1CCOCC1 [Moroxidine hydrochloride],percent Bodipy-positive cells,,25.8 ± 4.4%
Cn1cc(/C=C/C(=O)c2cccc(F)c2)cc1/C=C/C(=O)NO,percent Bodipy-positive cells,[3],34.1 ± 5.8%
same,percent Bodipy-positive cells,[4],40.9 ± 7%
same,percent Bodipy-positive cells,[6],51 ± 2.4%
same,percent Bodipy-positive cells,[1],16.8 ± 3.2%
"C=C1CCC(O)C/C1=C\C=C1\CCCC2(C)C1CCC2C(C)CCC(O)C(C)(C)O (configuration not stated) [24,25-Dihydroxyvitamin D3]",percent Bodipy-positive cells,[5],6 ± 3.8%
Nc1nccc2c1ncn2C1C=C(CO)C(O)C1O (configuration not stated) [3-Deazaneplanocin A (DZNeP)],percent Bodipy-positive cells,[1],20.4 ± 0.27%
same,percent Bodipy-positive cells,[2],35.4 ± 23%
Cc1nc(N(C)C(=O)Cc2ccc(-c3ccccn3)cc2)sc1S(N)(=O)=O [Pritelivir (BAY 57-1293)],percent Bodipy-positive cells,[1],26 ± 7%
same,percent Bodipy-positive cells,[2],37.2 ± 4.7%

# Looked up one by one from the list above (5):
compound,measurement,setting,value
CC(C)=CCC/C(C)=C\CO [Nerol],percent Bodipy-positive cells,[2],21.94 ± 0.03%
COc1cc2ncnc(Nc3ccc(F)c(Cl)c3)c2cc1NC(=O)/C=C/CN1CCCCC1,percent Bodipy-positive cells,[4],31.6 ± 6.2%
O=C(CCCCC(=O)Nc1c(I)cc(I)c(C(=O)O)c1I)Nc1c(I)cc(I)c(C(=O)O)c1I [Iodipamide],percent Bodipy-positive cells,[2],36.4 ± 19%
Cc1ccc(C(=O)C(C)CN2CCCCC2)cc1 (configuration not stated) [Tolperisone hydrochloride],percent Bodipy-positive cells,[2],15.7 ± 1.9%
Cc1cc(CN2CCN(c3c(Br)cnc4[nH]c(-c5ccc(N6CCN(C)CC6)cc5)nc34)CC2)no1,percent Bodipy-positive cells,[1],97.7 ± 2.4%

# Reference: the supplement of paper PMC9135407
